Literature values, collected in patent US10739353B2, “Suppression of cytokine release and cytokine storm” (SignPath Pharma Inc., priority 2014, dated 2020).
At least one structure is not confirmed: it was looked up by name or label, or the drawing left a doubt.

Details: rats; cited from earlier work

In the case of `CN(C)c1ccc(O)c2c1C[C@H]1C[C@H]3[C@H](N(C)C)C(O)=C(C(N)=O)C(=O)[C@@]3(O)C(O)=C1C2=O` [minocycline, reference compound], the “cytokines and recovery after spinal cord injury” value is listed as “reduced TNF-α, increased IL-10, reduced neuronal cell death and improved motor function”.
